Chains of the proteins cited; added tags and fusions are not shown.
UniProt P09874: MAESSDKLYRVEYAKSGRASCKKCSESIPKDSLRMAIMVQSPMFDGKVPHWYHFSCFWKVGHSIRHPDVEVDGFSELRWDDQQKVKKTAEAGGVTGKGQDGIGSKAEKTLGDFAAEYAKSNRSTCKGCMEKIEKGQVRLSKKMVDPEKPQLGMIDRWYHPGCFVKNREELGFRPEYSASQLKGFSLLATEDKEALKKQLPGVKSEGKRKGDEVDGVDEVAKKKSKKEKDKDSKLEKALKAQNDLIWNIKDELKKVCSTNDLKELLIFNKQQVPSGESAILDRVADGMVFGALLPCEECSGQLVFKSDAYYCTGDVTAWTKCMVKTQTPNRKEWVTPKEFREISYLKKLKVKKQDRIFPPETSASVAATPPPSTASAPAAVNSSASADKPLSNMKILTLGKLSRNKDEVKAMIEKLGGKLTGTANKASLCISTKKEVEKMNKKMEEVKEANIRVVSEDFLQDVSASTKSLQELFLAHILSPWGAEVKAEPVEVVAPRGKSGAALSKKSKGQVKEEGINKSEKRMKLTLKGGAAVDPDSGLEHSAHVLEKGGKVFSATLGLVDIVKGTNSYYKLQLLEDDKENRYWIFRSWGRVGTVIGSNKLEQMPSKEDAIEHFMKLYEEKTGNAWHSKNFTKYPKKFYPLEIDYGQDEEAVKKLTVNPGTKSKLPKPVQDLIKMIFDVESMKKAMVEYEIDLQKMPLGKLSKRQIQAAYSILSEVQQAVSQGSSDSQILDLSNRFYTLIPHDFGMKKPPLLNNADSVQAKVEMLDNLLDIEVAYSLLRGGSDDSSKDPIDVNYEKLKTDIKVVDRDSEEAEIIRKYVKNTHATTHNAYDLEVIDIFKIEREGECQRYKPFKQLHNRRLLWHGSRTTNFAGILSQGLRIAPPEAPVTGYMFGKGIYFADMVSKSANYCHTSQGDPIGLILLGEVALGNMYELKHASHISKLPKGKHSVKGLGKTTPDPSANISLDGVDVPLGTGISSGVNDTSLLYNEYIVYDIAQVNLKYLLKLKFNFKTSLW
UniProt Q01844: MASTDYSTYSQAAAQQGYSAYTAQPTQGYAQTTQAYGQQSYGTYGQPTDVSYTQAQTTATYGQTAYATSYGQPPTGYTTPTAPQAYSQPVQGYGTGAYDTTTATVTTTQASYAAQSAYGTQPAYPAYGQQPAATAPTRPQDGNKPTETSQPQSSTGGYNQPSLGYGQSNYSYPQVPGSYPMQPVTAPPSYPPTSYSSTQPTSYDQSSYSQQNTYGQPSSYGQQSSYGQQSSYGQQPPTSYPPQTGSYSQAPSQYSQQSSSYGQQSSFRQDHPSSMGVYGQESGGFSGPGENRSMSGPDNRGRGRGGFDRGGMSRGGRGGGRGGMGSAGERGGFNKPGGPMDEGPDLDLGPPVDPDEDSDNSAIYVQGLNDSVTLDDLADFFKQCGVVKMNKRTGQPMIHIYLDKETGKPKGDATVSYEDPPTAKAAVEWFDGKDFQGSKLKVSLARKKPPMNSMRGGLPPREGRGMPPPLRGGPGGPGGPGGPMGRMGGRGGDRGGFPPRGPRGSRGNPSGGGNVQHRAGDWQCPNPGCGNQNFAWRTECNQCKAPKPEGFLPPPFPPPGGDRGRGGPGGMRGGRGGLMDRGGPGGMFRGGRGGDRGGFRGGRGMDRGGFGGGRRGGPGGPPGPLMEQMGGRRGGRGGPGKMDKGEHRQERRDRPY

In article PMC8110583:

biological target: TDP-43 (human (endogenous in GPiNs, G401, T47D, A375)) (UniProt Q13148); assay: affinity purification with mass spectrometry; IP of endogenous TDP-43 from GPiN lysate (1-2 mg extract, 1-2 ug antibody, 4 C overnight, Protein G beads) against isotype-matched IgG control, triplicate, label-free LC-MS/MS; interactors: log2 FC > 0 and FDR <= 0.1

Row | binding | Substance
1 | binds | PARP1 (from UniProt P09874 1-1014)
2 | binds | EWSR1 (from UniProt Q01844 1-656)
3 | binds | VCP (from UniProt P55072 1-806)

No constants are given. Whether binding was seen depends on the method and setting. In cells and extracts the contact can be indirect. Here binding means that the protein was enriched with, or labelled near, the bait; the list need not be complete.
